Source: paper PMC2567031
No constants are given. Whether binding was seen depends on the method and setting. Binding seen in cells or lysates may run through a third protein.

Amino acid sequences for entries named in this document (tags omitted). Residues count along the entry.
UniProt P56480, residues 47-529: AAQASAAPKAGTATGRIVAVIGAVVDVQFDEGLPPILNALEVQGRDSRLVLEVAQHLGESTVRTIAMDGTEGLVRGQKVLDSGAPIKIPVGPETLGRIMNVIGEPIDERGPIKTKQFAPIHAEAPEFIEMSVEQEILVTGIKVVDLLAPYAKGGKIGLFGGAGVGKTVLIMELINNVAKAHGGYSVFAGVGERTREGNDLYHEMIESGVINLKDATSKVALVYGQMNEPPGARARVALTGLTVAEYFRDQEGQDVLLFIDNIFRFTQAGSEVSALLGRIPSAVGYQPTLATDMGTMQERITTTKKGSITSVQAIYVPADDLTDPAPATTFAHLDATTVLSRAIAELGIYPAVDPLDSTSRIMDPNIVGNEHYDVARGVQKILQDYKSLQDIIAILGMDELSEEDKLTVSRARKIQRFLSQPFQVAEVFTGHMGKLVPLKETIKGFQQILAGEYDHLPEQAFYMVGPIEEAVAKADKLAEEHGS
UniProt P00441, residues 2-154: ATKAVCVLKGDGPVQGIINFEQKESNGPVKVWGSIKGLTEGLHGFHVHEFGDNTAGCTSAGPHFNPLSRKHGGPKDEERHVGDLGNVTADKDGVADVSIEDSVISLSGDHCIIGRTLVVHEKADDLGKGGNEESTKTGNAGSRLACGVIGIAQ

Biological target: ATP synthase β subunit (mouse (endogenous in mouse spinal cord)) (UniProt P56480)
Experiment: co-IP; mouse spinal cord extracts; precipitation with antibodies to ATP1A, Hsp/Hsc70 or ATP5B on protein A/G plus-agarose; blots for hSOD1 or uSOD1

- binding: no binding
Substance: wild-type human SOD1 with the FLAG sequence (WF SOD1) (from UniProt P00441 2-154)
